These are yes or no findings as the source states them, for the method shown. Binding seen in cells or lysates may run through a third protein.
Target: HIV-1 Negative factor (Nef) of SF2 with an HA-tag (HIV-1 (SF2)) (UniProt P03407)
Assay: co-IP; FLAG-tagged Ser5 or HA-tagged Nef or glycoGag expressed or co-expressed in HEK293T cells; RIPA lysate; anti-FLAG M2 magnetic beads or anti-HA Affinity Gel; endogenous RETREG1 detected by WB

Protein sequences, listed by entry. Tags and fused reporters are not part of them.
UniProt P03407: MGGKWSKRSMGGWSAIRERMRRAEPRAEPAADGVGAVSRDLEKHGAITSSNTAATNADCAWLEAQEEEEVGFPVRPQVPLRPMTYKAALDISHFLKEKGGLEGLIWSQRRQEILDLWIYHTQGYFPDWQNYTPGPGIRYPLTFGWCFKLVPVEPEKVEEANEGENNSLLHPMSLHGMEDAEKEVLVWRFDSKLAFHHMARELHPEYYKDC

Q: For “Reticulophagy regulator 1 (RETREG1), endogenous (from UniProt Q9H6L5-1 1-497)”, which binding is on record?
A: Its binding is “no binding”.
